The source of these data is paper PMC11315920.

Sequences of proteins named here, by UniProt entry; tags and fusion partners are left off.
UniProt P24782: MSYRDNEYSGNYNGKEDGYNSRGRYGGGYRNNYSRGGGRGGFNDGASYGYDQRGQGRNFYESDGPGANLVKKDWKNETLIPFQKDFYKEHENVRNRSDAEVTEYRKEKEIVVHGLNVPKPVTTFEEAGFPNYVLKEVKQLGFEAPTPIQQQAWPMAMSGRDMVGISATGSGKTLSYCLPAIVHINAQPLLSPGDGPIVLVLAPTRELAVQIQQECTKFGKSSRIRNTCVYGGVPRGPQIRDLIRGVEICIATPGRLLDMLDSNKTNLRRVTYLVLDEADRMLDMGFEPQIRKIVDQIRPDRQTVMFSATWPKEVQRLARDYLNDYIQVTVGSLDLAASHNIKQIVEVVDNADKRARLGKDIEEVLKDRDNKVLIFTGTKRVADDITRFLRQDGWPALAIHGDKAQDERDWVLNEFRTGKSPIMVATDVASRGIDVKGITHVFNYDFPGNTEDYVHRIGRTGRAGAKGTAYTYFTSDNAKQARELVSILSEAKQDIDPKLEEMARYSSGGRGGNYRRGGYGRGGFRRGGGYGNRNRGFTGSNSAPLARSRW
UniProt P36594: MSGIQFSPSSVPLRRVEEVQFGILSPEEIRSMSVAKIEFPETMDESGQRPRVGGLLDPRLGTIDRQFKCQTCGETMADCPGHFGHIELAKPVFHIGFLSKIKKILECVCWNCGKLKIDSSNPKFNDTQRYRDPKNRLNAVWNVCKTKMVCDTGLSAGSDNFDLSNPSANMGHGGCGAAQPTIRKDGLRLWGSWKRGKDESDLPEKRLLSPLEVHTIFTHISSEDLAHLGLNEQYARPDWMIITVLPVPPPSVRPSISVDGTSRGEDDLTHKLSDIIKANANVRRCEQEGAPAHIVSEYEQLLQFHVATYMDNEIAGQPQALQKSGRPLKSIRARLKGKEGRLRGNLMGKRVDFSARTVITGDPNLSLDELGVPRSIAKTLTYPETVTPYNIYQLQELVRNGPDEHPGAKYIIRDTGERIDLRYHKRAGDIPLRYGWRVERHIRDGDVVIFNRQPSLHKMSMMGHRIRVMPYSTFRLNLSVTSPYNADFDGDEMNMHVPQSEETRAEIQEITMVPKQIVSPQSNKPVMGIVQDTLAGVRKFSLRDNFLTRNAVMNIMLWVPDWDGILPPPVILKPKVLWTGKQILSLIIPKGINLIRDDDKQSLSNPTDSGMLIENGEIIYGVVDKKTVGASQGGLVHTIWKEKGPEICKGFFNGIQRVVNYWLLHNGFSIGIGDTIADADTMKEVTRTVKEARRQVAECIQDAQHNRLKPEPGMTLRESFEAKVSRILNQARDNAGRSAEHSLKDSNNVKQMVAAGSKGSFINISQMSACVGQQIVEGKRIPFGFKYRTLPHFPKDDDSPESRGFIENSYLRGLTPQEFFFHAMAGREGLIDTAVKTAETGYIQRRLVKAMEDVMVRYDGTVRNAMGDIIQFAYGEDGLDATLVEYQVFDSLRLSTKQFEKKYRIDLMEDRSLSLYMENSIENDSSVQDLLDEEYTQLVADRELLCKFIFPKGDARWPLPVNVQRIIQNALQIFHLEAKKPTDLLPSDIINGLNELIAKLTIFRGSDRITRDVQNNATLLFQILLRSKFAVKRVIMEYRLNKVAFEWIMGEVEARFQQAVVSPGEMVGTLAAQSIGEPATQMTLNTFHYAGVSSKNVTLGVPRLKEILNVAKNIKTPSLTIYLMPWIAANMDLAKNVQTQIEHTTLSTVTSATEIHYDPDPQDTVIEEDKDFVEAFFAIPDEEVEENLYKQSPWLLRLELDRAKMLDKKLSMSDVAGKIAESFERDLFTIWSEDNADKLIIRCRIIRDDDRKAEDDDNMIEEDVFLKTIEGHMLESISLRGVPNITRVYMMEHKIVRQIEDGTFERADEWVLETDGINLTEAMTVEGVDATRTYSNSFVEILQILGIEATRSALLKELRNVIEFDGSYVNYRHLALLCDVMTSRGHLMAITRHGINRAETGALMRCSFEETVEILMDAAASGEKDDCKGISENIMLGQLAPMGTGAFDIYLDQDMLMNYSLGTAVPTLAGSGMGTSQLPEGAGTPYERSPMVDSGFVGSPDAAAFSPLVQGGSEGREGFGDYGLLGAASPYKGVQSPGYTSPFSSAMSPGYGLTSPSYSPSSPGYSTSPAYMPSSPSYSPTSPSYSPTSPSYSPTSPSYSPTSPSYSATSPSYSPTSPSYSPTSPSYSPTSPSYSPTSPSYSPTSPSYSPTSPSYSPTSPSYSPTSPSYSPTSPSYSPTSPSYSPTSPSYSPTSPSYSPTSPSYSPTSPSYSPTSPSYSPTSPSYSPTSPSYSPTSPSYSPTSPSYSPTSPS

For one assay, the target named is Dbp2-HTP (S. pombe) (UniProt P24782). In words: affinity purification with mass spectrometry; comparative interaction profiling: cells crosslinked with 0.01% formaldehyde for 10 min at 30 °C; HTP-tagged bait on IgG-sepharose, TEV elution, Ni-NTA agarose, imidazole elution; shotgun proteomics (LFQ), Dbp2-HTP relative to Srp2-HTP, no untagged control; n = 3 biological replicates.

The target in a further assay is T1, Srp2-HTP (S. pombe) (UniProt P78814).
T1 sequence: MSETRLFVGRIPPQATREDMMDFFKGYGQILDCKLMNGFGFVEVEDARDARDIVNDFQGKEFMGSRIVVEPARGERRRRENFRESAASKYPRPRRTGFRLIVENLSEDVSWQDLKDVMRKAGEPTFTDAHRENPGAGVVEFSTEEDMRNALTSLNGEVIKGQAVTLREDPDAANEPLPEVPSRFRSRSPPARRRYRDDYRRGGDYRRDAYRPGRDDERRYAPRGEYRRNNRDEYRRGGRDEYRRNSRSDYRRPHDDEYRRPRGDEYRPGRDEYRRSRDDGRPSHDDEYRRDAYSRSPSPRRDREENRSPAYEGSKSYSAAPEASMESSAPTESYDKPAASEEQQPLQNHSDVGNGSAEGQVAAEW
Described as above.

No constants are given. Whether binding was seen depends on the method and setting. Binding seen in cells or lysates may run through a third protein. A yes stands for co-enrichment or nearness to the bait. Other partners may have been found.

Turning to Rpb1 (from UniProt P36594 1-1752), the binding result with Dbp2-HTP (S. pombe) and with Srp2-HTP (S. pombe) was “binds” each time.
